# Screening data, single-dose tests

Protein sequences, listed by entry. Tags and fused reporters are not part of them. Residues count along the entry.
UniProt Q8IDJ8, 1-583: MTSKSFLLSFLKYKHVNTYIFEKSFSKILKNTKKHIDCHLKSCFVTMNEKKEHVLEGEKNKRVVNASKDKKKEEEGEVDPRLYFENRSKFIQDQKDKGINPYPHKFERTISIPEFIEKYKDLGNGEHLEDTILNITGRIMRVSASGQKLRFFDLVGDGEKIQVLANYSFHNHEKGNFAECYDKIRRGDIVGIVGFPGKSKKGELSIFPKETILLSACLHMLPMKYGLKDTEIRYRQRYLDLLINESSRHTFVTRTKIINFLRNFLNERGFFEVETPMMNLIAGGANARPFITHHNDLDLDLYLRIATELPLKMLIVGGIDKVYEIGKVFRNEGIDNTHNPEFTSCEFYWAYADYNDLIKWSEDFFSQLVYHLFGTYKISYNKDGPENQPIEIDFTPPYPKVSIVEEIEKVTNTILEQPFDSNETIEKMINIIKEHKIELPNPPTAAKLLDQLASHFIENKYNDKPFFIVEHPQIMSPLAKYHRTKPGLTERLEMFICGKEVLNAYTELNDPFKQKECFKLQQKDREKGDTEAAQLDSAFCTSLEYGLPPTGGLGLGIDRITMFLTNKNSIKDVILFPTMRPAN

Source: ChEMBL document CHEMBL3988442, “University of Dundee, Small-Polar-MMV Screening Library” (2021).

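Lysine-tRNA ligase, Plasmodium falciparum 3D7 (UniProt Q8IDJ8). Enzyme assay of the cytosolic lysyl-tRNA synthetase in 384-well plates, read by luminescence. Tested at 30 µM. Direction is inferred from only a few compounds that gave an IC50; most scored high, so higher reads as stronger inhibition. Size under these conditions: about 69,000 compounds, about 49 of them at 50% or above in at least one test.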

The filed quantity is “Percent Effect” (%).
How 0% and 100% were set is not recorded. Most values in the screen are low, and negative values occur.
Compounds were drawn at random from those tested, without regard to their results.

structure,effect
Cc1csc(N2CCCN(C(=O)Cc3ccc(C)s3)CC2)n1,-1.447
c1ccc2c(c1)cnn2CCCNC1CCOC2(CCOCC2)C1 (centres unmarked),4.106
O=C(C1CCC2(CCN(Cc3cccnc3)CC2)CO1)N1CCCC1 (centres unmarked),5.527
Cc1cc(C)n(CC2CCCN2CC(=O)N(C)C)n1 (centres unmarked),8.453
O=C(O)[C@]12CCCN(Cc3ccsc3)C[C@H]1CN(c1ccccn1)C2,-4.622
CN(C)C(=O)N1CCN(Cc2nc3ccccc3[nH]2)[C@H]2CS(=O)(=O)C[C@H]21,1.304
CNc1nc2c(s1)C(c1cccc(F)c1F)CC(=O)N2 (centres unmarked),50.53
Cc1cc(C)cc(OCCNC(=O)C(C)Sc2nncn2C)c1 (centres unmarked),-2.874
Cc1cc(CN2CCc3cncnc3C2)no1,8.953
CN1C(=O)CC[C@@H]2N(C(=O)CCc3cccnc3)CCCC[C@@]21C,-0.2032
O=C(COCC1CC1)Nc1ccn(Cc2cccc3cccnc23)n1,2.173
COc1ccc(CCNCc2c(C)nn(C)c2N(C)C)cc1OC,3.564
COCCN1CCN(C)C2(CCN(C(=O)c3ccnnc3)CC2)C1=O,0.448
O=C(NCCCO)NCCc1cc(F)ccc1F,3.225
Cc1cc(C)c(CNC(=O)NCc2ccc3c(c2)CCC3)c(=O)[nH]1,1.564
CC(=O)N1CCOCC(Cc2ccc3c(ccn3C)c2)C1 (centres unmarked),0.1132
COc1c(C(=O)NC(C)Cc2ccccc2Cl)c(C)nn1C (centres unmarked),8.801
CC(C)=CCN1C[C@H]2CC[C@@H]1CN(C(=O)Cc1c(C)nc(C)[nH]c1=O)C2,-1.346
COC(=O)C1C=CCN1C(=O)c1cc(COc2ccccc2)[nH]n1 (centres unmarked),6.31
CO[C@@H]1CC[C@H]2[C@H]1OCCN2C(=O)c1ccco1,2.114
Cc1nn(C)c(Cl)c1C1CCCN1C(=O)c1ccoc1C (centres unmarked),-0.143
CC(C(=O)Nc1ccc(N2CCCCC2)nc1)n1ccnc1 (centres unmarked),0.429
c1ccc(CN2CCC(NCCc3ccc4c(c3)CCO4)CC2)nc1,0.2654
Cc1cc(C(=O)NCc2ccc(N3CCN(C)CC3)nc2)c(C)s1,-0.3202
Cn1cccc1C(=O)N1C[C@H]2CN(Cc3cccnc3)C[C@H]2C1,-0.09198
CN(Cc1ccco1)C(=O)Nc1cc(C(F)(F)F)c[nH]c1=O,1.005
COc1cccc(CC(=O)N2CCN(C)c3ncccc3C2)c1,4.768
CCOCC(=O)Nc1ncc(I)cc1C,3.764
CC1(C(=O)N2CCOCC2)CN(Cc2ccccn2)CCO1 (centres unmarked),-4.983
Cc1cccc2c1CCN(c1cc(N3CCCC3CO)ncn1)C2 (centres unmarked),30.02
O=C(Nc1cnn(C2CCOCC2)c1)c1ccc2c(c1)OCO2,-1.449
CC(C)NC(=O)NC(C)c1ccc(-c2ccncc2)cc1 (centres unmarked),0.2055
CCn1c(CN2CCN(CCOC)CC2)nc2c(F)cccc21,-1.34
N#Cc1c[nH]nc1NCc1ccc2c(c1)OCO2,8.281
COC[C@]12COC[C@H]1CN(S(=O)(=O)c1cccnc1)C2,3.051
O=C(C1CCOCC1)N1CCO[C@H]2[C@@H](OCC3CC3)CC[C@@H]21,4.904
CC(C)COc1ccccc1CN(C)C(=O)c1cc(=O)[nH]c(=O)[nH]1,4.717
Cc1cnn(CC2CCCN2C(=O)Cc2c(C)noc2Cl)c1 (centres unmarked),-1.973
Cc1c(C2NC3(CCCC3)C(=O)N2CC2CC2)cc(C#N)n1C (centres unmarked),2.492
Cc1cc(N[C@H]2CCCN(Cc3ccccc3)C2)n2nc(C)cc2n1,0.4024
c1cnc(N2CCO[C@H]3CN(Cc4csnn4)C[C@H]32)nc1,0.9288
O=C1NCC2(CCCN(C(=O)Nc3ccc4occc4c3)CC2)O1 (centres unmarked),-2.31
O=C(CN1CCOC(Cn2cncn2)C1)NC(C1CC1)C1CC1 (centres unmarked),-3.572
CC(C)(C)C(=O)N1CCCC1(C(=O)N1CCCC1)c1cnccn1 (centres unmarked),-1.613
CN1C(Cn2cccn2)C[C@@H]2CN(Cc3cccnc3)CC[C@@H]21 (some centres unmarked),4.658
COc1ccncc1NC(=O)c1[nH]nc(C(C)C)c1Br,1.576
Cc1cc(C)n(CC2CN(CC(=O)NCc3cccs3)CCO2)n1 (centres unmarked),-0.9744
COc1cccc(-c2n[nH]cc2CNC2CCCN(C)C2)c1 (centres unmarked),1.726
O=C(NCC1CC1)C1CN(c2ncccn2)Cc2ccnn2C1 (centres unmarked),-1.557
Cc1csc(N2CCN(C3CCc4ccccc4C3)CC2)n1 (centres unmarked),-1.078
CCc1ccc(O)c(C(=O)NC2CCN(Cc3ccncc3)CC2)c1,-2.04
Cc1cccc(CN2C[C@@H]3CN(C(=O)[C@H]4CCCO4)C[C@@H]3C2=O)c1,-1.522
COc1cccc(CN(C)Cc2ccccc2C#N)c1OC,0.7333
COCCN1CCC(CNc2nc3ccccc3o2)CC1,-1.699
CC(C)NC(=O)CC1COC2(CCN(Cc3ccco3)CC2)C1 (centres unmarked),-4.656
CC(=O)N1CCC(NC(=O)c2cc(Cl)ccc2-n2cnnn2)CC1,2.773
c1cnc(Nc2cncc(C3CCCN3)n2)cn1 (centres unmarked),1.641
Cc1nccc(CC2COCCN(c3cnccn3)C2)n1 (centres unmarked),-0.02906
CCOCC(O)CN1CCN(C(=O)Cc2ccc3c(c2)CCO3)CC1 (centres unmarked),3.675
CN(C)C[C@H]1OC[C@@H]2CCN(S(=O)(=O)c3cccs3)C[C@@H]21,-4.512

Some entries from above, unchanged:

structure	effect
CCc1ccc(O)c(C(=O)NC2CCN(Cc3ccncc3)CC2)c1	-2.04
Cc1cc(C)c(CNC(=O)NCc2ccc3c(c2)CCC3)c(=O)[nH]1	1.564
O=C(COCC1CC1)Nc1ccn(Cc2cccc3cccnc23)n1	2.173
COc1cccc(-c2n[nH]cc2CNC2CCCN(C)C2)c1 (centres unmarked)	1.726